These are yes or no findings as the source states them, for the method shown. In cells and extracts the contact can be indirect. Here binding means that the protein was enriched with, or labelled near, the bait; the list need not be complete.

The chains behind the UniProt entries cited, without tags or fusion partners.
UniProt P10415: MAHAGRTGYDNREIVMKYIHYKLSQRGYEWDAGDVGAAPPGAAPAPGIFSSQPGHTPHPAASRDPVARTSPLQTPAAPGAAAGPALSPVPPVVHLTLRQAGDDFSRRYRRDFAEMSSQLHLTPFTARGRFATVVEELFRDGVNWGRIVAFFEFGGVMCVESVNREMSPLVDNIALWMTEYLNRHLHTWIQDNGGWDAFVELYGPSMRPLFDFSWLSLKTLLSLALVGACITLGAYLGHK
UniProt P19474: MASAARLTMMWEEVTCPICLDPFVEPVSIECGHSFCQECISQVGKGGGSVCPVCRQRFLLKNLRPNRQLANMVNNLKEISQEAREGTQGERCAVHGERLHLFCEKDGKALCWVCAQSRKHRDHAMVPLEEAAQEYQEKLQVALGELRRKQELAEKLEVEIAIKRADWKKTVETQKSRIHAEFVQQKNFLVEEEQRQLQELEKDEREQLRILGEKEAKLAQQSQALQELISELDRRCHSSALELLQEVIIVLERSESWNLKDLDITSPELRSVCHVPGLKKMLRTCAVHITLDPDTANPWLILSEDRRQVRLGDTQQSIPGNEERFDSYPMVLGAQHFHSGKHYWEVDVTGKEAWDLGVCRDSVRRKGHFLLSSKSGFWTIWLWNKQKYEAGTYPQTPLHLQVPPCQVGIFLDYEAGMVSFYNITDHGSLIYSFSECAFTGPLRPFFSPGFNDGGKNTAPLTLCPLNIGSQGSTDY

This test concerns the target BCL2 (UniProt P10415). In words: affinity purification with mass spectrometry; co-immunoprecipitation mass spectrometry (Co-IP-MS) of BCL2; cells and antibody not told.

Turning to TRIM21 (from UniProt P19474 1-475), the binding entry is given as “binds”.
